Assay results: publication PMC7313111
No constants are given. Whether binding was seen depends on the method and setting. For some of these results: Binding seen in cells or lysates may run through a third protein.

The chains behind the UniProt entries cited, without tags or fusion partners.
UniProt P38532: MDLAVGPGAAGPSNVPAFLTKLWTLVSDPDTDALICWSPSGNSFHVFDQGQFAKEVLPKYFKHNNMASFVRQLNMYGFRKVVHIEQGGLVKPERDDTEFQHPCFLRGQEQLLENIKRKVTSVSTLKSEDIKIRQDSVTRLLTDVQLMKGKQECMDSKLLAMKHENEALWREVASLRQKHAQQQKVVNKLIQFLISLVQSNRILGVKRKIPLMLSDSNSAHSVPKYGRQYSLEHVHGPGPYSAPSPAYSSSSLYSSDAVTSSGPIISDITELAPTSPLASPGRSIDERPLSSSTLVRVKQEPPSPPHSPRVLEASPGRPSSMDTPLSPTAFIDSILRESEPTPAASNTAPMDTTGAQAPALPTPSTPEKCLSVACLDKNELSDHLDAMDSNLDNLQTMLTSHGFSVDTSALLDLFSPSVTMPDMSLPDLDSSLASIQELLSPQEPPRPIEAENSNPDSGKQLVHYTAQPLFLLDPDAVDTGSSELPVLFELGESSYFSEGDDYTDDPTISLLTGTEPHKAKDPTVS
UniProt Q61696: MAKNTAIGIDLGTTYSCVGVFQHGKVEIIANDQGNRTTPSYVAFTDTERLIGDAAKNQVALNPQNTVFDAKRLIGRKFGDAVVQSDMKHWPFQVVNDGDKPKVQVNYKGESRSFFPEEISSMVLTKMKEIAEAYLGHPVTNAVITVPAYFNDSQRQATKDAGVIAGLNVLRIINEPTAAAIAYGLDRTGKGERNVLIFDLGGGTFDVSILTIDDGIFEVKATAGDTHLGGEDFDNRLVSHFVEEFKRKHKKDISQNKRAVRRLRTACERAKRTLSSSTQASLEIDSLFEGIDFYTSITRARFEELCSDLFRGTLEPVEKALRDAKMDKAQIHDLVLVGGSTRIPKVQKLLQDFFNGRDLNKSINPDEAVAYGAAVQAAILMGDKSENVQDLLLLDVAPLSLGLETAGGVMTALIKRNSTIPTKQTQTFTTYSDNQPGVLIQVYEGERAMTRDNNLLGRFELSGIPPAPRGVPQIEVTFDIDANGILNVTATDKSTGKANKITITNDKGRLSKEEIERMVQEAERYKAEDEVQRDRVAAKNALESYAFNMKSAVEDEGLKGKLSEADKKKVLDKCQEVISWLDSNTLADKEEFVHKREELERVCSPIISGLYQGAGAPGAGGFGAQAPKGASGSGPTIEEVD

T1: ALDH2 (mouse (endogenous in mouse heart and neonatal mouse cardiomyocytes)) (UniProt P47738)
T1 sequence: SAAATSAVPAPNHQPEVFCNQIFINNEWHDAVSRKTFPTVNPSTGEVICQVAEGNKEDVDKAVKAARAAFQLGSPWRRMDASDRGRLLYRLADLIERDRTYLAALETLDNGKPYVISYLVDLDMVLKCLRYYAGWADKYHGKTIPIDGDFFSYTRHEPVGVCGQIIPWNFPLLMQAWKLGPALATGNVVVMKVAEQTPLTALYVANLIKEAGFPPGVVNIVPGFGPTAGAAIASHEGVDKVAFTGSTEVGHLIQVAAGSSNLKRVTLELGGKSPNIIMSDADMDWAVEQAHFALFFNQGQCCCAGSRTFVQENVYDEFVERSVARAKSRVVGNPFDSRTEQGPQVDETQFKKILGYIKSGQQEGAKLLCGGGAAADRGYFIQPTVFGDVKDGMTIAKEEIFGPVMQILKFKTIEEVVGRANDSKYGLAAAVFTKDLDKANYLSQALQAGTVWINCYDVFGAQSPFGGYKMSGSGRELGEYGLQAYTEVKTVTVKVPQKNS

T2: pBIND-ALDH2 (UniProt P47738)
T2 sequence: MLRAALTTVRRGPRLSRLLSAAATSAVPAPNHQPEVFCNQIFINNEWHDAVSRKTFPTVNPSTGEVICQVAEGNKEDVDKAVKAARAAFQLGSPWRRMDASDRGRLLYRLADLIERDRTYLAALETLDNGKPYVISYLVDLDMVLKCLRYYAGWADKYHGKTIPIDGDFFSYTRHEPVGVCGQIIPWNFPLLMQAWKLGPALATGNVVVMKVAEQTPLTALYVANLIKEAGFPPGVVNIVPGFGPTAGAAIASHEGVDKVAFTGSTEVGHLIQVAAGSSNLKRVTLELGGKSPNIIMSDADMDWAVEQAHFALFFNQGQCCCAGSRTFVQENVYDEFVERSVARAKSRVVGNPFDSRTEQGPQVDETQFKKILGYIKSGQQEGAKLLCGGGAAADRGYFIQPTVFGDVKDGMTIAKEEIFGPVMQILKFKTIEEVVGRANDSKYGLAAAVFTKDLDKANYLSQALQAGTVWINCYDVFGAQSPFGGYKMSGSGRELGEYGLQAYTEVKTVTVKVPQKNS


Key:
[1] = biological target: T1, ALDH2 (mouse (endogenous in mouse heart and neonatal mouse cardiomyocytes)); assay: co-IP; lysates of heart of 4-week TAC mice and of 48-hour stretched cardiomyocytes; lysis buffer 150 mmol/l NaCl, 1 mmol/l EDTA, 50 mmol/l Tris-HCl, 5% glycerol, 0.1% NP-40, 4°C; antibody then protein A/G-agarose beads; Western blot; IgG lane as negative control; both orientations (anti-ALDH2 and anti-HSF1)
[2] = biological target: T2, pBIND-ALDH2; assay: two-hybrid; mammalian two-hybrid luciferase reporter in cardiomyocytes: cotransfection of pBIND-ALDH2 with pACT-HSF1 or pACT-HSPA1A and pG5luc; ratio of luciferase RLU to Renilla luciferase RLU
[3] = biological target: HSF1 (mouse (endogenous in mouse heart and neonatal mouse cardiomyocytes)) (UniProt P38532); assay: co-IP; lysates of heart of 4-week TAC mice and of 48-hour stretched cardiomyocytes; lysis buffer 150 mmol/l NaCl, 1 mmol/l EDTA, 50 mmol/l Tris-HCl, 5% glycerol, 0.1% NP-40, 4°C; antibody then protein A/G-agarose beads; Western blot; IgG lane as negative control; both orientations (anti-ALDH2 and anti-HSF1)

binding [2]	Molecule	other results
	HSF1 (from UniProt P38532 1-525)	binding [1]: no binding
no binding	pACT-HSF1 (from UniProt P38532 1-525)	
no binding	pACT-HSPA1A (from UniProt Q61696 1-641)	
	ALDH2 (protein, UniProt P47738 20-519) SAAATSAVPAPNHQPEVFCNQIFINNEWHDAVSRKTFPTVNPSTGEVICQVAEGNKEDVDKAVKAARAAFQLGSPWRRMDASDRGRLLYRLADLIERDRTYLAALETLDNGKPYVISYLVDLDMVLKCLRYYAGWADKYHGKTIPIDGDFFSYTRHEPVGVCGQIIPWNFPLLMQAWKLGPALATGNVVVMKVAEQTPLTALYVANLIKEAGFPPGVVNIVPGFGPTAGAAIASHEGVDKVAFTGSTEVGHLIQVAAGSSNLKRVTLELGGKSPNIIMSDADMDWAVEQAHFALFFNQGQCCCAGSRTFVQENVYDEFVERSVARAKSRVVGNPFDSRTEQGPQVDETQFKKILGYIKSGQQEGAKLLCGGGAAADRGYFIQPTVFGDVKDGMTIAKEEIFGPVMQILKFKTIEEVVGRANDSKYGLAAAVFTKDLDKANYLSQALQAGTVWINCYDVFGAQSPFGGYKMSGSGRELGEYGLQAYTEVKTVTVKVPQKNS	binding [3]: no binding
